According to patent publication US20220204560A1 (L-BASE CO., LTD., priority 2019, published 2022):
Where a sequence shows no end group, the ends are not given. Strings that start with PEPTIDE1 are HELM notation: dots part the residues, brackets hold end groups and non-standard residues.

Experiment: peptide made by a vendor (Fmoc solid-phase peptide synthesis; 2-chlorotrityl resin)
Conditions: whole synthesis, 220 nm

Row | Substance | purity (crude or final not stated)
1 | AQTLTGKT | 97.36%
2 | PEPTIDE1{A.Q.T.M.T.G.K.T}$$$$V2.0 | 96.5%
3 | PEPTIDE1{A.Q.T.A.T.G.K.T}$$$$V2.0 | 97.8%
4 | PEPTIDE1{A.Q.T.V.T.G.K.T}$$$$V2.0 | 97.6%
5 | AQTITGKT (Oligopeptide #1 AQTITGKT) | 97.6%
6 | PEPTIDE1{A.Q.T.P.T.G.K.T}$$$$V2.0 | 97.6%
